Measured values: patent US7612079B2, “2,6,9-substituted purine derivatives and their use in the treatment of proliferative disorders” (Cyclacel Limited, priority 2001, dated 2009)
pIC50: −log10 of the molar value.

Tested on: representative panel of human transformed tumour cell lines
Experiment: Average anti-proliferative activity in a panel of tumour cell lines
Format: cell-based
Settings: read-out: average anti-proliferative IC50

`CC[C@H](CO)Nc1nc(NCc2ccccc2)c2ncn(C(C)C)c2n1` [Roscovitine] gave a pIC50 of roughly 5.00.
